This is an account of results in publication PMC7819943, “Rice protein-binding microarrays: a tool to detect cis-acting elements near promoter regions in rice”.

By UniProt entry, the sequences of proteins in these tests, tags left out.
UniProt Q0JBA9, entry or part of it: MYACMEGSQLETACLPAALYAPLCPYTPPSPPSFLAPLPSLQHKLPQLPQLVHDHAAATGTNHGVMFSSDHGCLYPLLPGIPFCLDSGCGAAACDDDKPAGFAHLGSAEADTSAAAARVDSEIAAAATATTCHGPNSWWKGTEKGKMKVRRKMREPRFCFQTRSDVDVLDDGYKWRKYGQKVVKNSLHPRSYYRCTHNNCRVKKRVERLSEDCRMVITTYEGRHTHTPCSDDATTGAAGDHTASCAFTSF

The list shows a part of the results.

This experiment has as its target OsWRKY34 (Oryza sativa, UniProt Q0JBA9 1-250). The experiment is described as follows: protein-binding microarray (RPBM); PBS, 2% BSA, 51.3 ng/ul salmon testes DNA, 50 uM zinc acetate, 200 nM TF, 25 C, 1 h; high values mean tight binding. As to conditions: protein: recombinant; tags: N-terminal polyhistidine and DsRed monomer fusion (pET32a); label: CyDye5-dUTP incorporated in the synthesized complementary strand; 3' TTTTT single-stranded linker to array surface; dsDNA, one strand shown. In outline:
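In PBS with 2% BSA, salmon testes DNA and 50 µM zinc acetate, 200 nM protein was incubated on a custom Agilent array at 25 °C for 1 h and then washed off. The array had been made double-stranded by primer extension with Cy5-dUTP and blocked with 2% BSA. The proteins were transcription factors fused N-terminally to polyhistidine and DsRed, expressed in E. coli BL21-CodonPlus and purified on Ni–NTA. The binding signal is per-feature fluorescence intensity (arbitrary units) from an Axon 4000B scanner.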
As for “ATGTTTGACTTGTCACTGTGCTAAAAATGCTTATATTTTTCGGAGTCACCTAGTGCAG”, the binding signal is 8220 fluorescence intensity (a.u.).

Regarding “CTGTCTCGCGCCGCCACCGCCTACCCCTCGTTCAAAAAAACGGAGTCACCTAGTGCAG”, the binding signal is 11000 fluorescence intensity (a.u.). The value for “AACAACCTTAACCTCACCCTTTTTTTCCCTTTTCCTTTTCCGGAGTCACCTAGTGCAG” was 11200 fluorescence intensity (a.u.). For the sequence “ACACTTCAATCAACCACCCAACTCGCACCGCACCGGTTTTCGGAGTCACCTAGTGCAG”, the binding signal is 10200 fluorescence intensity (a.u.). Take “CTTCGTCCACTAGCTATTTTTTTTTGTCTTAAATTATTTGCGGAGTCACCTAGTGCAG”: the binding signal is 8360 fluorescence intensity (a.u.). The value for “GATTCTGCCAATGGTTGCTGCACCATCTCACACACACCACCGGAGTCACCTAGTGCAG” was 9610 fluorescence intensity (a.u.); that for “AATATTTTTTTTTACTGTTTTCACTTTGACCATTAATATTCGGAGTCACCTAGTGCAG” was 9790 fluorescence intensity (a.u.). On to “CGCAATATATCCATTTTATATTCTTATTCTTTCTCATCCTCGGAGTCACCTAGTGCAG”, for which the binding signal was 9190 fluorescence intensity (a.u.). As for “CCTCCTTGTTATCGCCGACGCCACAGCAGCCGCGGGAGGTCGGAGTCACCTAGTGCAG”, the binding signal is 8360 fluorescence intensity (a.u.). The value for “GGATTGCCTCTAACACCACATCAGTTGACACACAAGGTTCCGGAGTCACCTAGTGCAG” was 9040 fluorescence intensity (a.u.); that for “TCCATCATCAACAAATGTTTACCGTAACATCATATTGTCACGGAGTCACCTAGTGCAG” was 8340 fluorescence intensity (a.u.). As to “TTGTACTACCATTACCTATTGTGCTTGTCATATTTAGAGGCGGAGTCACCTAGTGCAG”, the binding signal is 8120 fluorescence intensity (a.u.).

As to “TTTTGTATGTTTTATTTTTTGACATTGTATTGTCGCTCAACGGAGTCACCTAGTGCAG”, the binding signal is 12100 fluorescence intensity (a.u.). On to “GTGCTGGCTTATTTCATGTATATTGTGATGGACTCTTTTTCGGAGTCACCTAGTGCAG”, for which the binding signal was 8200 fluorescence intensity (a.u.). The value for “TCTATTTTCATCGCCACTATACCTCCGGCCCACGGACGCGCGGAGTCACCTAGTGCAG” was 8230 fluorescence intensity (a.u.). For the sequence “CACTACGTTTCGGTTTTGACCATTTTCCCAATTTCTATAGCGGAGTCACCTAGTGCAG”, the binding signal was 8960 fluorescence intensity (a.u.). The value for “GGTCTCTCTCTTCGTCTCTCCGTCTCTCGTTCTCTCCTCTCGGAGTCACCTAGTGCAG” was 8770 fluorescence intensity (a.u.); that for “GATGTCTGCCTTTAGTTGAGTATTTCATGAGAAGATATTACGGAGTCACCTAGTGCAG” was 9320 fluorescence intensity (a.u.); that for “TCCCGCATCTCGCGCCGCCGCCCCTCCACCGCATCCACGCCGGAGTCACCTAGTGCAG” was 11300 fluorescence intensity (a.u.). Next, “GATCCCATTTCGGCTTTTTATTATCCAAATCCCACGGAAGCGGAGTCACCTAGTGCAG”: 8860 fluorescence intensity (a.u.); “CGTTGGACATGGAAACCGGGTTTGTCTTTTTTTTTTTAACCGGAGTCACCTAGTGCAG”: 8290 fluorescence intensity (a.u.); “TGCTTCTTGGACATCGCATCATATTTAAGCATGTTTTCCTCGGAGTCACCTAGTGCAG”: 10500 fluorescence intensity (a.u.). Consider “CAGGTTCTCTTTATCCGCCGCTGCTTCTGAATTTTTGCCCCGGAGTCACCTAGTGCAG”, for which the binding signal is 8400 fluorescence intensity (a.u.).

Turning to “AAAAGTATAGTGTGCCTGGTGGGGTGTTCCCATTAACGATCGGAGTCACCTAGTGCAG”, the binding signal is 9480 fluorescence intensity (a.u.). The value for “GCGGCGGCGGCGCGAGGTTGACGACGACCCTGTCAGCGGGCGGAGTCACCTAGTGCAG” was 8850 fluorescence intensity (a.u.); that for “CTCATAGTCATAGTTACTGATTTGTTTGCTCATAGTCATACGGAGTCACCTAGTGCAG” was 13900 fluorescence intensity (a.u.).

Regarding “GGTTTTAGCTGACGTGGCGCCTACGTGACAGTGTTGACCCCGGAGTCACCTAGTGCAG”, the binding signal was 8330 fluorescence intensity (a.u.). As for “ATCTCTAAACACCAAATTTGACACCGATCCACGTGCACACCGGAGTCACCTAGTGCAG”, the binding signal was 8620 fluorescence intensity (a.u.).

As for “ATATATATAGTACGTACTAAGATCTTTCTTTTTTCATCACCGGAGTCACCTAGTGCAG”, the binding signal is 9500 fluorescence intensity (a.u.). Next, “CACAATACTGTCTCACTCAGCTTTTATTGACCATATGCTCCGGAGTCACCTAGTGCAG”: 10500 fluorescence intensity (a.u.); “TCTCCCTCATTCGGCGTGCCTCCGCTCCTCTCCTGCGCGCCGGAGTCACCTAGTGCAG”: 8110 fluorescence intensity (a.u.); “GTTATTTTTTTAGCCTATATGTAATACTTCAGATGTTCAACGGAGTCACCTAGTGCAG”: 8080 fluorescence intensity (a.u.). Next, “GTCTCACCGGAGCTCCGCCGCCGCCGCCGCCGTTTTCTCCCGGAGTCACCTAGTGCAG”: 25700 fluorescence intensity (a.u.); “GATTTCGTCACGCCAAAGCCGTGACAGGCTGATTGCTACCCGGAGTCACCTAGTGCAG”: 9100 fluorescence intensity (a.u.); “ATTTCCTTATATATATTCTTCTTCTTTTGCGATCACATGCCGGAGTCACCTAGTGCAG”: 9050 fluorescence intensity (a.u.). For “CTGCGTCGTCTTTTCTCTCTCTACTGGTTGGTATGGTAATCGGAGTCACCTAGTGCAG”, the binding signal was 11000 fluorescence intensity (a.u.). With “ATTAATATCCTCCTTGCAAGATATGCACTACTGTTACAGACGGAGTCACCTAGTGCAG”, the binding signal is 8470 fluorescence intensity (a.u.). Consider “ATCACCACCCACCCCGCTCCTCGCGCCGCCGACGCGCCACCGGAGTCACCTAGTGCAG”, for which the binding signal is 9350 fluorescence intensity (a.u.). Next, “ACGTGCATAATTATTTTTATTCTTGATATGTGTTTGACAGCGGAGTCACCTAGTGCAG”: 8080 fluorescence intensity (a.u.); “TTTTGTTTGGCTCAGCTCGGTTCACTCCCTGTTCATGTTACGGAGTCACCTAGTGCAG”: 10700 fluorescence intensity (a.u.). Regarding “TCCCAATTCACAGCTGGGTCTATGTATCACTTATCAAGTACGGAGTCACCTAGTGCAG”, the binding signal was 9860 fluorescence intensity (a.u.). Next, “TGTCCGGTTTTCGTAAGTTGGGGAATGGGTCGTATCCGGTCGGAGTCACCTAGTGCAG”: 8160 fluorescence intensity (a.u.).
